Drawing on PMC4422259, “Arc is a flexible modular protein capable of reversible self-oligomerization” (Biochemical Journal, 2015), this text covers binding for three molecules.

For assay [1], the target named is V231G hArc variant (polymorphism rs201562490), cleaved from the His-ZZ fusion protein (human) (UniProt Q7LC44). The assay is described as follows: dynamic light scattering; V231G hArc, size distribution and thermal scans compared with the wild type; results not shown; both purified.
For assay [2], the target named is recombinant human Arc (activity-regulated cytoskeleton-associated protein), wild type, cleaved from the His-ZZ-hArc fusion protein (human) (UniProt Q7LC44). The assay can be described thus: dynamic light scattering; hArc 22 μM (1 mg/ml) in double-distilled water, 36°C; both purified.
Assay [3] addresses T1, GST-hArc fusion protein (human) (UniProt Q7LC44).
T1 sequence: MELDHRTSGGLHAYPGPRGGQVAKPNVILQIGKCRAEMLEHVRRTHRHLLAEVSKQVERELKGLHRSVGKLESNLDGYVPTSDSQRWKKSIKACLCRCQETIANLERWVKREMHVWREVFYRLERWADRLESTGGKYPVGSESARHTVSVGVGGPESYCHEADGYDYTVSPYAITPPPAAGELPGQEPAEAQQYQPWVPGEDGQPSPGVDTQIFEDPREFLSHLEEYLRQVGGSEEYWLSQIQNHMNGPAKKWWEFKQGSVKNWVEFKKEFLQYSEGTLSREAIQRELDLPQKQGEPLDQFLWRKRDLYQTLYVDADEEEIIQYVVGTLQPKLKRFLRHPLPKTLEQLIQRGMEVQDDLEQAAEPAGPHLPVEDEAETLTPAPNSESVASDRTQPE
The assay can be described thus: SPR; Biacore 3000, 25°C, HBS-EP (10 mM sodium Hepes, pH 7.4, 150 mM NaCl, 3 mM EDTA, 0.005% P20); GST-hArc captured by immobilised anti-GST antibody (280-320 RU); peptides injected at 100-400 μM; 1:1 Langmuir fit; both purified. (In general: In SPR one partner is held on a chip, and binding of the other changes the refractive index at the surface.)

Residue numbers refer to the chain shown, from its start. Numbers in names are those of the source. No constants are given. Whether binding was seen depends on the method and setting. Some entries that bind do so weakly or less than the wild type. Where a sequence is shown, tags or fusion partners need not be part of it.

B1: V231G hArc variant (polymorphism rs201562490), cleaved from the His-ZZ fusion protein (protein, UniProt Q7LC44 1-396)
chain: T1 sequence with V231G
With B1, in assay [1], the binding entry is listed as “binds”.

B2: recombinant human Arc (activity-regulated cytoskeleton-associated protein), wild type, cleaved from the His-ZZ-hArc fusion protein (natural protein, UniProt Q7LC44 1-396, looked up)
chain: T1 sequence
notes: human Arc (activity-regulated cytoskeleton-associated protein); called full-length hArc; Vector pETZZ_1a; also called WT hArc; Arc/Arg3.1; source: E. coli BL21-CodonPlus, auto-induction medium, purified (Ni-NTA, TEV cleavage, second Ni-NTA flow-through); not shown: His, N-terminal, cleaved; ZZ domain, N-terminal, cleaved
For B2, the binding result in assay [2] is “no binding (condition: in double-distilled water (22 μM))”.
On to EQLTKCEVFRELKDLKGY [Peptide A, corresponding to the N-terminal region of α-lactalbumin], for which the binding entry in assay [3] was “binds weakly”.
